Tests used:
[1] = system: normal human lung fibroblasts; assay: Procollagen Type 1 C-Peptide (PIPC) EIA in culture media of TGFβ-treated fibroblasts; assay type: cell-based; details: 10 ng/ml TGFβ, 24 hours, FIG. 1; read-out: EC50 for blocking the TGFβ-induced increase in procollagen production
Method: Briefly, normal human lung fibroblasts (Lonza #CC-2512; cell passage numbers 2 through 5 were used for all experiments) were seeded (Day 0) and cultured in Dulbecco's modified Eagle medium (DMEM) supplemented with 10% fetal bovine serum (FBS), penicillin, streptomycin and glutamax (Invitrogen) at 37° C. in a humidified incubator with 5% CO2 overnight. On Day 1, cells were harvested, washed with phosphate buffered saline (PBS), and then incubated for 48 hours in fresh serum-free DMEM supplemented with penicillin, streptomycin, and glutamax.
After this 24 hour incubation, procollagen type 1 levels were measured by collecting culture media, centrifuging to pellet cellular debris, and stored at −80° C. Procollagen Type 1 C-Peptide (PIPC) was quantified using the (PIP) EIA kit (Clontech, Cat. No. MK101) according to manufacturer's instructions. The TGFβ-treated fibroblasts of this example were examined by ribosomal profiling (about 6×10^6 cells/10 cm plate) and western blot analysis (about 1×10^6 cells/well of a 6-well plate). […]
After this 24 hour incubation, procollagen type 1 levels were measured by collecting culture media, centrifuging to pellet cellular debris, and stored at −80° C. Procollagen Type 1 C-Peptide (PIPC) was quantified using the (PIP) EIA kit (Clontech) according to manufacturer's instructions. […]

[2] = system: normal human lung fibroblasts; assay: Ribosomal profiling: translational efficiency in TGFβ-treated fibroblasts; assay type: cell-based
Method: Ribosomal profiling allows for measurement of changes in transcription and translation on a genome-wide basis accompanying TGFβ-dependent transformation of fibroblasts to myofibroblasts. Ribosomal profiles of the TGFβ-treated fibroblasts from Example 1 (about 6×10^6 cells/10 cm plate) were prepared and analyzed for changes in translational efficiencies with respect to potential disease-associated cellular changes accompanying this TGFβ-induced transformation.
Briefly, cells were washed with cold PBS supplemented with cycloheximide and lysed with 1× mammalian cell lysis buffer for 10 minutes on ice. Lysates were clarified by centrifugation for 10 minutes at 14,000 rpm and supernatants were collected. Cell lysates were processed to generate ribosomal protected fragments and total mRNA according to the instructions included with the ARTseq Ribosome Profiling Kit (Illumina, San Diego, Calif.). Sequencing of total RNA (RNA) and of ribosome-protected fragments of RNA (RPF) was carried out using RNA-Seq methodology according to the manufacturer's instructions (Illumina). To analyze the ribosomal profiles, RNA-Seq reads were processed with tools from the FASTX-Toolkit (fastq_quality_trimmer, fastx_clipper and fastx_trimmer). Unprocessed and processed reads were evaluated for a variety of quality measures using FastQC, and processed reads were mapped to the human genome using TopHat (see, e.g., Trapnell et al., Bioinformatics 25:1105, 2009). Gene-by-gene assessment of the number of fragments strictly and uniquely mapping to the coding region of each gene was conducted using HTSeq-count, a component of the HTSeq package. […] Genes with low counts in either RPF or RNA were excluded from differential analyses. Pathway and network analyses of differential data were conducted using Ingenuity Pathway Analysis (IPA).

## CC(C)n1nc(-c2cc3cc(O)ccc3[nH]2)c2c(N)ncnc21 [PP242]
[1]
  EC50: ~0.2 µM
[2]; ENSG00000049130, TGFβ-treated fibroblasts
  renormalizing the translational profile of KITLG: − (− = <0.9)
[2]; ENSG00000089094, TGFβ-treated fibroblasts
  renormalizing the translational profile of KDM2B: − (− = <0.9)
[2]; ENSG00000132510, TGFβ-treated fibroblasts
  renormalizing the translational profile of KDM6B: − (− = <0.9)
[2]; ENSG00000204520, TGFβ-treated fibroblasts
  renormalizing the translational profile of MICA: − (− = <0.9)
[2]; TGFβ and PP242 treatment
  translational efficiencies of procollagen and α-SMA: essentially independent
[2]; TGFβ-treated fibroblasts, duplicate ribosomal profiles
  number of genes whose translational efficiency was uniquely modulated by the compound: five
[2]; fibroblasts treated with TGFβ and PP242 (TGFβ alone 0.65 log2)
  mean increase in translational efficiency of all genes in the eIF2 pathway: 0.09 log2
[2]; fibroblasts treated with TGFβ and PP242 (TGFβ alone 1.3 log2)
  mean increase in translational efficiency of the 12 eIF2 signaling pathway genes: 0.4 log2
